Laboratory results: PubChem BioAssay AID540276 (National Center for Advancing Translational Sciences (NCATS), 2011)
Screen size: about 300,000 compounds; about 5,400 (1.8%) were called active. This list was built around the results that the source calls inconclusive (neither active nor inactive); the mix of calls is not that of the screen. Calls follow the shape of the full dose curve; tested in HEK293 cells. Potencies of inconclusive entries are doubtful fits and often do not repeat.

Test: qHTS for inhibitors of binding or entry into cells for Marburg Virus
Conditions: Marburg virus pseudotyped entry inhibition, cell reporter; activity change, negative = inhibition: at 37.8 µM (top of the series) unless noted
% is scaled to controls: 0 for no effect and ±100 for the full control effect; potency is read from the fitted curve at half-maximal effect.

SMILES | Potency | activity change, negative = inhibition
COc1ccc(NS(=O)(=O)c2cccc(N/C(=N\S(=O)(=O)c3ccccc3)c3ccc(F)cc3)c2)cc1 | inconclusive: 20.6 µM [inhibitor, single point] | 
COc1ccc2c(c1)C1C=CCC1C(c1cc3c(cc1Br)OCO3)N2 (centres undefined) | inconclusive: 7.3 µM [inhibitor, partial curve, poor fit] | 
Cc1ccc(NC(=O)CN(Cc2ccco2)Cc2ccccc2O)cc1C | inconclusive: 35.5 µM [inhibitor, single point] | 
CC1CCc2c(nc3sc4c(c3c2N)CCCC4)C1 (centres undefined) | active: 11.2 µM | 
O=C(c1ccc(S(=O)(=O)N2CCOCC2)cc1)N(c1ccccn1)C1CCCCC1 | inconclusive: 2 µM [inhibitor, single point] | 
C1CCN(Cc2nnnn2CC2CCCO2)CC1 (centres undefined) |  | inactive: -0.157%
COc1ccc2ccc3c(c2c1)N=CC1(O3)N(C)c2ccccc2C1(C)C (centres undefined) | inconclusive: 6.51 µM [inhibitor, partial curve, poor fit] | 
O=C(Nc1ccccc1N1CCCCC1)c1ccc(F)c(S(=O)(=O)N2CCOCC2)c1 |  | inactive: -1.2% [at 46.1 µM]
CC(C)Cc1nnc(NC(=O)CN2C(=O)c3ccccc3C2=O)s1 | inconclusive: 35.5 µM [activator, partial curve, poor fit] | 
COc1ccc(-c2cc3nc(C)c(CCC(=O)NCc4ccco4)c(C)n3n2)c(OC)c1 | inconclusive: 8.2 µM [inhibitor, partial curve, poor fit] | 
Nc1ncccc1OCc1ccc(Br)cc1 |  | inactive: -0.799% [at 46.1 µM]
CCCc1ccc(-c2ccc(F)c(N)c2)nc1 | inconclusive: 2.31 µM [inhibitor, full curve, poor fit] | 
Cc1ccc(CNC(=O)CSc2ccc(-c3ccco3)nn2)cc1 | inconclusive: 12.6 µM [activator, single point] | 
Cc1ccn2c(=O)nc(SCC(=O)N3CCCC3)nc2c1 | inconclusive: 0.112 µM [inhibitor, full curve, poor fit] | 
O=C1OC(c2ccccc2)=C/C1=C/N1CCCCC1 | inconclusive: 2.06 µM [activator, partial curve, poor fit] | 
Cc1cc(N/N=C/c2ccc(O)cc2O)nc(-c2ccccc2O)n1 | inconclusive: 8.2 µM [inhibitor, partial curve, poor fit] | 
COc1ccc(N2CCN(C(=O)CSc3nnc4c(C)cc5cc(C)ccc5n34)CC2)cc1 | inactive | 
O=C(CCn1c(=O)oc2ccccc21)N1CCN(C(c2ccccc2)c2ccccc2)CC1 | inconclusive: 35.5 µM [inhibitor, single point] | 
Cc1cc(/C=N/O)c(C)n1-c1ccccc1 | inconclusive: 4.11 µM [inhibitor, partial curve, poor fit] | 
Cc1ccc(NC(=O)C2SC(=Nc3ccccc3)C(C(=O)Nc3ccc(Cl)cc3)=C2N)cc1 (centres undefined) | inconclusive: 1 µM [activator, full curve, poor fit] | 
O=C(N/N=C/c1ccccn1)c1cc(-c2ccc(Br)s2)[nH]n1 | inconclusive: 17.8 µM [inhibitor, single point] | 
CC(O)CNc1nc2sc3c(c2c(=O)n1Cc1ccco1)CCCCC3 (centres undefined) | inconclusive: 7.08 µM [activator, full curve, poor fit] | 

Random excerpt: two records from the list.
SMILES | Potency | activity change, negative = inhibition
COc1ccc(-c2cc3nc(C)c(CCC(=O)NCc4ccco4)c(C)n3n2)c(OC)c1 | inconclusive: 8.2 µM [inhibitor, partial curve, poor fit] | 
Cc1ccn2c(=O)nc(SCC(=O)N3CCCC3)nc2c1 | inconclusive: 0.112 µM [inhibitor, full curve, poor fit] | 

The listing continues:

SMILES | Potency | activity change, negative = inhibition
O=C1OC(Cc2ccccn2)C(O)=C1C1=NCCCN1 (centres undefined) | inconclusive: 14.1 µM [activator, single point] | 
C/C(=N\NC(=O)c1ccc(Cl)cc1)c1cccc(NC(=O)c2cccnc2)c1 |  | inactive: -9.42%
CC(=O)c1ccc(NC(=O)Cn2nc(C(F)(F)F)c3c2CCC3)cc1 | inconclusive: 5.62 µM [activator, single point] | 
COC(OC)c1ccnc(-c2ccc(OC(C)=O)cc2)n1 |  | inactive: 12.7% [at 46.1 µM]
Cc1ccc2cc(C)c3nnc(SCC(=O)NCc4ccco4)n3c2c1 |  | inactive: -11.3%
CCC/C=N/NC(=O)C1COc2ccccc2O1 (centres undefined) | inconclusive: 12.6 µM [inhibitor, partial curve, poor fit] | 
O=C(CCCCCn1c(=S)[nH]c2cc3c(cc2c1=O)OCO3)N1CCN(C2CCCCC2)CC1 | inconclusive: 35.5 µM [inhibitor, single point] | 
CC(NC(=S)NC1CCCCC1)C(c1ccccc1)N1CCOCC1 (centres undefined) | inconclusive: 0.891 µM [inhibitor, partial curve, poor fit] | 
O=C1c2ccccc2C(=O)N1CCSC(=S)N1CCOCC1 |  | inactive: 7.15%
COc1cc(OC)cc(-c2nnc(SCC(=O)N(C(C)C)C(C)C)o2)c1 |  | inactive: -19.9%
CCOc1ccc(NC(=O)Cn2c(=O)n(CCc3ccccc3)c(=O)c3c4c(sc32)CCCC4)cc1 |  | inactive: 8.6% [at 46.1 µM]
CC(C)(C)c1nc(-c2ccccc2)oc1Nc1ccc2ccccc2c1 | inconclusive: 0.75 µM [activator, partial curve, poor fit] | 
CN(Cc1ccccc1)c1nc2c(c(=O)[nH]c(=O)n2C)n1CCOc1ccccc1 | inconclusive: 35.5 µM [inhibitor, single point] | 
COc1ccc(-c2cc3ccccc3n2CC(O)Cn2nc(C)cc2C)cc1 (centres undefined) | inconclusive: 25.1 µM [inhibitor, single point] | 
CC(C)OC(=O)CC(=O)c1sc2nc3c(cc2c1N)CN(C)CC3 |  | inactive: -3.19%
CCCCCn1c(=O)[nH]c2cc(C(=O)NC3CCN(Cc4ccccc4)CC3)ccc2c1=O |  | inactive: -1.24% [at 46.1 µM]
Cc1ccc(NC(=O)CC2Oc3ccc(C)cc3NC2=O)c(C)c1 (centres undefined) | inconclusive: 5.62 µM [inhibitor, single point] | 
CCOc1ccc(C(C)=O)cc1CSC(=N)N | inconclusive: 7.94 µM [inhibitor, partial curve, poor fit] | 
CCC1(C)NC(=O)N(/N=C/c2cc(OC)c(O)c(OC)c2)C1=O (centres undefined) |  | inactive: 7.58%
COC(=O)Nc1nn(-c2ccc(C)cc2)c(=O)c(C#N)c1C | inconclusive: 17.8 µM [activator, single point] | 
Cc1cc(C)c(C)c(SCC(=O)Nc2oc(C)c3c(C)n[nH]c(=O)c23)c1C |  | inactive: 6.46%
C=CC[C@@H]1C=C[C@H](ON=C(C)CCN2CCCc3nc(C)c(C)cc32)[C@H](CO)O1 |  | inactive: 23.1% [at 14.2 µM]
